Article PMC11362102, “N-terminus GTPase domain of the cytoskeleton protein FtsZ plays a critical role in its adaptation to high hydrostatic pressure” (Frontiers in Microbiology, 2024)
Results are given in words; binding and its absence hold for the method and conditions named. Some binding calls cover weakened binding; strength is not graded here. Sequences can lack the tags named with a protein.

Molecular target: FtsZ from Shewanella oneidensis MR-1 (FtsZSo), His-tagged, purified (Shewanella oneidensis MR-1) (UniProt Q8E9Q1)
Assay: in vitro polymerisation seen by negative-stain TEM; 5 uM purified FtsZ, 50 mM KCl, 10 mM MgCl2, 50 mM Tris-HCl pH 8.0, 2 mM GTP; 10 min at atmospheric pressure, then 5 h at 50 MPa, ambient temperature; fixed under pressure with glutaraldehyde, stained with 1% uranyl acetate; filament bundles counted on each grid; both purified

B1: FtsZ from Shewanella oneidensis MR-1 (FtsZSo), His-tagged, purified (natural protein, UniProt Q8E9Q1 1-395, looked up)
chain: MFEIMDTHSDDAVIKVIGVGGGGGNAVEHMVKHNIEGVEFVVTNTDAQALRKSGAGSTIQLGRDVTKGLGAGANPEVGRAAAEEDRENIRAAIKGSDMIFIAAGMGGGTGTGAAPVVAQIAREEGILTVAVVTKPFPFEGKKRMAYAEQGIAELAKHVDSLITIPNEKLLKVLGRGTSLLDAFAAANNVLLGAVQGIAELITRPGLINVDFADVKTVMSEMGNAMMGTGVARGEDRAEEAAEAAVASPLLEDIDLAGARGVLVNITAGMDMSIEEFETVGNHVKAYASDNATVVVGAVIDPEMSDELRVTVVATGIGAEKRPDIQLVSKPAPRPEPVVVEPKVEAYVEEATHVSYAAPKGNVLPAAPAPAPAPAPSTKHELDYLDIPAFLRKQAD
notes: FtsZ of Shewanella oneidensis MR-1; ftsZSo amplified and cloned into pET28a(+) at BamHI/XhoI; the printed limits (nucleotides up to 1185, residues up to 395) point to 395 residues; Polymerises into filaments with GTP; source: E. coli Rosetta (DE3), pET28a(+), purified (Ni2+-agarose)
B1 was tested, and the binding was “binds weakly”.
